Experimental data: article PMC12264102
Results are given in words; binding and its absence hold for the method and conditions named. In cells and extracts the contact can be indirect. Where a sequence is shown, tags or fusion partners need not be part of it.

Molecular target: OTUD1 with residues 1-308 mutated
Test: co-IP; IP analysis of OTUD1 truncation constructs with SLC25A11; cell lysate, antibody overnight at 4 °C, Protein A/G magnetic beads, western blot; cells and tags not stated

binding: no binding
B1: SLC25A11-HA (pcDNA3.1-SLC25A11-HA) (protein, UniProt Q02978 1-314)
chain: MAATASAGAGGIDGKPRTSPKSVKFLFGGLAGMGATVFVQPLDLVKNRMQLSGEGAKTREYKTSFHALTSILKAEGLRGIYTGLSAGLLRQATYTTTRLGIYTVLFERLTGADGTPPGFLLKAVIGMTAGATGAFVGTPAEVALIRMTADGRLPADQRRGYKNVFNALIRITREEGVLTLWRGCIPTMARAVVVNAAQLASYSQSKQFLLDSGYFSDNILCHFCASMISGLVTTAASMPVDIAKTRIQNMRMIDGKPEYKNGLDVLFKVVRYEGFFSLWKGFTPYYARLGPHTVLTFIFLEQMNKAYKRLFLSG
